Source: PMC7819943, “Rice protein-binding microarrays: a tool to detect cis-acting elements near promoter regions in rice”
The list shows a part of the results.

The chains behind the UniProt entries cited, without tags or fusion partners.
UniProt Q0JBA9, entry or part of it: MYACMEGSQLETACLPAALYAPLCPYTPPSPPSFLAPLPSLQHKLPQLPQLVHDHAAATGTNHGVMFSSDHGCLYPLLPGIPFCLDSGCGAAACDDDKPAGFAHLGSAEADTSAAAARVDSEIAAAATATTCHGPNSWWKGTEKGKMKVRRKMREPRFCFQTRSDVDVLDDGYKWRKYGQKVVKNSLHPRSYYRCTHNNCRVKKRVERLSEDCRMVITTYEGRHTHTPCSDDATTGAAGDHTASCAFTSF

The sequences below were run against OsWRKY34 (Oryza sativa, UniProt Q0JBA9 1-250) (assay: protein-binding microarray (RPBM); PBS, 2% BSA, 51.3 ng/ul salmon testes DNA, 50 uM zinc acetate, 200 nM TF, 25 C, 1 h; high values mean tight binding). Settings: protein: recombinant; tags: N-terminal polyhistidine and DsRed monomer fusion (pET32a); label: CyDye5-dUTP incorporated in the synthesized complementary strand; 3' TTTTT single-stranded linker to array surface; dsDNA, one strand shown.
Outline: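 Binding signal is reported as fluorescence intensity per feature (arbitrary units) from an Axon 4000B scanner. Incubation used 200 nM of each Ni–NTA-purified, N-terminally polyhistidine- and DsRed-fused transcription factor from E. coli BL21-CodonPlus on a double-stranded custom Agilent array for 1 h at 25 °C, with 50 µM zinc acetate in the buffer, followed by washing.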

First: GGGGACCGGTTGTATCTGGTTTTGGGGTTTAAGGACGAAACGGAGTCACCTAGTGCAG
Second: CTTCCGACATCCGGTTAAACATCCGATACGACACCCCAAACGGAGTCACCTAGTGCAG
The binding signal of the first is higher: 10200 fluorescence intensity (a.u.) for the first, 8040 fluorescence intensity (a.u.) for the second.

Going from “GCCCAATGCATCATTTCCTTCGTACGTTGCAATCTAGGCCCGGAGTCACCTAGTGCAG” to “AAATCAAAGCTATACTGTTGCATACCATATTTGTGGATACCGGAGTCACCTAGTGCAG”, the binding signal falls from 9190 fluorescence intensity (a.u.) to 8650 fluorescence intensity (a.u.).

First: CGTCGGTGTAGCCTGCCGCCTCTAATGCCTTCCTCAGCACCGGAGTCACCTAGTGCAG
Second: CCGGTCTCGTCGACATCGATCATTCTCGCTCCGCCCAGCCCGGAGTCACCTAGTGCAG
The binding signal of the first is higher: 8470 fluorescence intensity (a.u.) for the first, 8310 fluorescence intensity (a.u.) for the second.

Compared with “TCGTTAATTGTACTTCTTGTTTCTGAAACTTTCCGGAGACCGGAGTCACCTAGTGCAG”, “GCTGCTGTCTCACACTCTCTCTCTCCCCTCCCTTTTCGTCCGGAGTCACCTAGTGCAG” is higher in binding signal: 8150 fluorescence intensity (a.u.) for the first, 9670 fluorescence intensity (a.u.) for the second.

First: TAGGAGAATTTCTCACTCGTGAGTGGGTGTGGGTTTTCTACGGAGTCACCTAGTGCAG
Second: AAGCCCGACGACGGCGCTTGGCGATGGGTGGGGAGAAGGCCGGAGTCACCTAGTGCAG
The binding signal of the first is higher: 12000 fluorescence intensity (a.u.) for the first, 8730 fluorescence intensity (a.u.) for the second.

First: GTTTGACTTTTATAACACAATGGTATAATTTGAGTAAATGCGGAGTCACCTAGTGCAG
Second: ATAGCCCGTCTTTGTTTAATTTCTATGAGCAGTCTACCCACGGAGTCACCTAGTGCAG
The binding signal of the first is lower: 8400 fluorescence intensity (a.u.) for the first, 8980 fluorescence intensity (a.u.) for the second.

Compared with “TTGGCTTTCTCTCTCTCTTTTTCTTTTTCTTTCTTTCTTTCGGAGTCACCTAGTGCAG”, “ACATCCTCTTTTCTTTTTCTTTTTAACGCATTGACATGACCGGAGTCACCTAGTGCAG” is higher in binding signal: 9580 fluorescence intensity (a.u.) for the first, 9870 fluorescence intensity (a.u.) for the second.

Going from “TCGCAGGTTCGAGACCTGCATGGGCCATTATTTTTTTTTTCGGAGTCACCTAGTGCAG” to “GCCACCACGCCGCCCTGCTGCTGCTGCCTCGGTTAAACGGCGGAGTCACCTAGTGCAG”, the binding signal rises from 8100 fluorescence intensity (a.u.) to 8790 fluorescence intensity (a.u.).

First: CCTTTCCAAGTCGGTCGGGGTAGCTGGGTTGTCTCGCCGGCGGAGTCACCTAGTGCAG
Second: TCCACCGCCGCCGATAACACCCAAGCCAAGCGCGGTCGCTCGGAGTCACCTAGTGCAG
The binding signal of the first is higher: 12300 fluorescence intensity (a.u.) for the first, 11000 fluorescence intensity (a.u.) for the second.

Going from “GCCGATCGATCAATCGCCGCCGCCGTCTCCTCGTGTAACCCGGAGTCACCTAGTGCAG” to “CCGCACTCTATTATTGTATTGATTAGCTTGTGTCATTCGCCGGAGTCACCTAGTGCAG”, the binding signal rises from 8240 fluorescence intensity (a.u.) to 8760 fluorescence intensity (a.u.).

Compared with “AGTCCCAATCTACAACTTGCAATAAAAACCAGGCGATTACCGGAGTCACCTAGTGCAG”, “AGGAAGCATTTCCGTAACGGAACGCCTCATACTTGCTCTCCGGAGTCACCTAGTGCAG” is lower in binding signal: 8640 fluorescence intensity (a.u.) for the first, 8490 fluorescence intensity (a.u.) for the second.

“TCCACTTACTTCTTCACTGCTCGCCATCATCTCCTTCTTTCGGAGTCACCTAGTGCAG” and “CTGCACCTGCTTGATCTCTTCTATGTCACTGTTCCTCTGACGGAGTCACCTAGTGCAG” are the same in binding signal: 10100 fluorescence intensity (a.u.) for the first, 10100 fluorescence intensity (a.u.) for the second.

First: TTTATACTCCTTCTGTTTCATATTATTTTTTTCTACTAGTCGGAGTCACCTAGTGCAG
Second: AAATTGGAGGGTTGGGATCTTCTATTTTTCTTGGTTAACCCGGAGTCACCTAGTGCAG
The binding signal of the first is lower: 8860 fluorescence intensity (a.u.) for the first, 10100 fluorescence intensity (a.u.) for the second.

Compared with “GCTACATCCTACTACACCCTAGCTACACAACCTTTGTCCCCGGAGTCACCTAGTGCAG”, “TGGCTTATTGTACGTTATACATGCGCTATTTTTGCAAAAGCGGAGTCACCTAGTGCAG” is lower in binding signal: 9120 fluorescence intensity (a.u.) for the first, 8520 fluorescence intensity (a.u.) for the second.

Going from “CAAGCAATATCAAATCTTTTACCACGTTTACTACTGATCCCGGAGTCACCTAGTGCAG” to “CCGTCCCCGGAAACCCTAGGCACTGACCTCGCCGGAGATGCGGAGTCACCTAGTGCAG”, the binding signal rises from 8550 fluorescence intensity (a.u.) to 8600 fluorescence intensity (a.u.).

Going from “TGAGCCCCGCTATGCTCACCTACCCCATATACGCGGCGCACGGAGTCACCTAGTGCAG” to “TCTTCCATCGTTGTCCGCTGTCACCGTCGCTGTTCGCCTTCGGAGTCACCTAGTGCAG”, the binding signal rises from 8330 fluorescence intensity (a.u.) to 16300 fluorescence intensity (a.u.).

Compared with “TCTCATCTCATTTGTTTTCGTTCAACGCTATCTTTAGTTACGGAGTCACCTAGTGCAG”, “CGCCACCCACCGCGCCCACAACACGCACGGTATATATACACGGAGTCACCTAGTGCAG” is lower in binding signal: 13500 fluorescence intensity (a.u.) for the first, 8110 fluorescence intensity (a.u.) for the second.

First: CGGAGGAAGGGGATTAGGGGAGGGATCGGATCTGGGGCGTCGGAGTCACCTAGTGCAG
Second: CGTACTCCGTAGTTTTCTGGGTTAGCGAGCCTGTACCGATCGGAGTCACCTAGTGCAG
The binding signal of the first is higher: 11500 fluorescence intensity (a.u.) for the first, 9060 fluorescence intensity (a.u.) for the second.

Going from “CGCGTTTCTCTCCTCTTTTCTCTCTCCTTCCTTGATCTCCCGGAGTCACCTAGTGCAG” to “TCACCGCGTAGCCGTAGCCGTTTCCATTAGCCCACTCCTCCGGAGTCACCTAGTGCAG”, the binding signal falls from 9020 fluorescence intensity (a.u.) to 8230 fluorescence intensity (a.u.).

Going from “TTAGTTTTTTCATTCGTGTCCGAAAATCCCTTCCGACATCCGGAGTCACCTAGTGCAG” to “TTTTGGACTGCTATCACGTGATTATTGTTTATTTTGTTATCGGAGTCACCTAGTGCAG”, the binding signal falls from 8590 fluorescence intensity (a.u.) to 8240 fluorescence intensity (a.u.).

Compared with “AGTTTTTTTTCATCTGGGTCTTCTCATCTGATTTAGAATACGGAGTCACCTAGTGCAG”, “TATTAATCACCCAAGTCGATCCATAGTTCCATACATGCTACGGAGTCACCTAGTGCAG” is lower in binding signal: 9050 fluorescence intensity (a.u.) for the first, 8650 fluorescence intensity (a.u.) for the second.

Going from “ATTTGATTTCTATCAACCAACACCTATTTTTACACTTTTTCGGAGTCACCTAGTGCAG” to “GATTCATCTTGCCCTCAAAGTTTCCTGCTTTGTTTGATCACGGAGTCACCTAGTGCAG”, the binding signal rises from 8040 fluorescence intensity (a.u.) to 9520 fluorescence intensity (a.u.).

Compared with “AACGGAGACTAACACCAATGATCACCTGTGCACAGTTCCACGGAGTCACCTAGTGCAG”, “TTATATATTTGTCCTTGTAAAATTAACGGGTTGTTTGTCTCGGAGTCACCTAGTGCAG” is higher in binding signal: 8640 fluorescence intensity (a.u.) for the first, 9980 fluorescence intensity (a.u.) for the second.

Going from “CTAGTTTATTTTTCAGATTCTACAGTTATATATTCTCATCCGGAGTCACCTAGTGCAG” to “TCTTGGCATCCTATGTTAGTTTGAAGGTATTTTATTTTCACGGAGTCACCTAGTGCAG”, the binding signal rises from 8120 fluorescence intensity (a.u.) to 8400 fluorescence intensity (a.u.).

First: TTCTCTTTTATCTGTTTGCTTCCTATAAATTCTACGCGATCGGAGTCACCTAGTGCAG
Second: GCCACGATTTGGGAGACCCATTTTCTTCTTTTATTTCTTTCGGAGTCACCTAGTGCAG
The binding signal of the first is lower: 8480 fluorescence intensity (a.u.) for the first, 8760 fluorescence intensity (a.u.) for the second.

Going from “GGCCCACTCCAACTCGACCCAACCCAACCCAAACCCAACCCGGAGTCACCTAGTGCAG” to “CTTGGGCGTCTTGTGTTTGTGGGTGAGGTAGCCAGCTGCCCGGAGTCACCTAGTGCAG”, the binding signal rises from 9170 fluorescence intensity (a.u.) to 9910 fluorescence intensity (a.u.).

Compared with “ACTTTATTGTTTTTCTTCTTATTTTATTTCTCTGTTCTTTCGGAGTCACCTAGTGCAG”, “GAGTATTTGAGTTGTTCCTTCCGCTTGTTGGGGAGCCATGCGGAGTCACCTAGTGCAG” is lower in binding signal: 10300 fluorescence intensity (a.u.) for the first, 8460 fluorescence intensity (a.u.) for the second.
